Here are results for one molecule from PMC10710093.

The chains behind the UniProt entries cited, without tags or fusion partners.
UniProt P17980: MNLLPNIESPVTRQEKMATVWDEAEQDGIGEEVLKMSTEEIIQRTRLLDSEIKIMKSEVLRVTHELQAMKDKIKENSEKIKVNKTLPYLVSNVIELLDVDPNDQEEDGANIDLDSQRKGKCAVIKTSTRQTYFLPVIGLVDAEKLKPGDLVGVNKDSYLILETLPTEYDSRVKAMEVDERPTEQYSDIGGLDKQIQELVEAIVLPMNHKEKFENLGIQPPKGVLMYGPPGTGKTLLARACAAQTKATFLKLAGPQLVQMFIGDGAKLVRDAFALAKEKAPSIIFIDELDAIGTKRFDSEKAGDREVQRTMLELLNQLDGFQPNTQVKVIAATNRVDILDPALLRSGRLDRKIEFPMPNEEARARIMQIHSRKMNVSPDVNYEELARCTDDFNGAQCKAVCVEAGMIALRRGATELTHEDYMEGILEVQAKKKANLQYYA

Results are given in words; binding and its absence hold for the method and conditions named. In cells and extracts the contact can be indirect. Some entries that bind do so weakly or less than the wild type.

The target in the test is PSMC3 (TBP1), a 19S proteasome subunit (human (endogenous in NCI-H1975)) (UniProt P17980). Kind of test: co-IP; overexpressed FRA1-WT or FRA1-C97A, complex formation with PSMC3 (SI Appendix, Fig. S3E); which protein was precipitated is not told in the main text.

B1: FRA1-C97A, ADP-ribosylation deficient mutant, ectopically expressed (protein, UniProt P15407 1-271)
chain: MFRDFGEPGPSSGNGGGYGGPAQPPAAAQAAQQKFHLVPSINTMSGSQELQWMVQPHFLGPSSYPRPLTYPQYSPPQPRPGVIRALGPPPGVRRRPAEQISPEEEERRRVRRERNKLAAAKCRNRRKELTDFLQAETDKLEDEKSGLQREIEELQKQKERLELVLEAHRPICKIPEGAKEGDTGSTSGTSSPPAPCRPVPCISLSPGPVLEPEALHTPTLMTTPSLTPFTPSLVFTYPSTPEPCASAHRKSSSSSGDPSSDPLGSPTLLAL
In the case of B1, the binding entry is given as “binds”.
